According to PubChem BioAssay AID977622 (Broad Institute, 2014):
The campaign covered roughly 1,900 compounds. Fewer than 10 were called active. The inconclusive results got no clear call from the source; some entries with a clear call stand among them for comparison.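 The calls were made as follows: active = Green signal of the normal strain falls at least twice as much as red signal of the resistant mutant, with overall culture growth loss under a set limit; inconclusive = no clear call, values can overlap the other calls; inactive = the rest.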

Assay: wild-type E. coli growth inhibition versus h38 humanized strain – h38 mutant RFP, wild-type GFP, cherry-pick, dose response (AID 977622)
Conditions: E. coli WT ribosome GFP fluorescence, mixed culture, 24 h; at 50 µM (top of the series)

Row | Compound | activity change, negative = inhibition
1 | COc1ccccc1CC(=O)NCCCc1ccccc1 | inactive: 4.73
2 | COc1ccc(C2CN=NC23CCc2ccccc2C3=O)cc1 (configuration not stated) | inconclusive: -10.5
3 | O=S1(=O)N[C@@H](Cc2ccccc2)COc2cc(N3CCC[C@H]3CO)ccc21 | inconclusive: 18.8
4 | C(=C/c1nccc2c1[nH]c1ccccc12)/c1ccc2c(c1)OCO2 | inconclusive: 3.25
5 | C[C@H]1CCCCO[C@H](CN(C)C)[C@@H](C)CN([C@@H](C)CO)C(=O)c2cc(NC(=O)Nc3cccc4ccccc34)ccc2O1 | inconclusive: 17.8
6 | O=c1c2ccccc2cnn1Cc1n[nH]c(=S)n1C1CC2CCC1C2 (configuration not stated) | inactive: -7.89
7 | CC(=O)NCCOc1nc(N2CCCCC2)nc(N2CCCCC2)n1 | inconclusive: -10.6
8 | CC(C)(C)C1CCC(C(=O)OCC(=O)N2CCN(C(=O)c3ccco3)CC2)CC1 (configuration not stated) | inconclusive: -12.3
9 | O=C(NCc1ccccc1)c1nc(S(=O)(=O)Cc2ccccc2)ncc1Cl | inconclusive: -6.8
10 | O=C(Cc1cccnc1)N1CC(=O)N2[C@H](C1)[C@@H](c1ccc(C3=CCCCC3)cc1)[C@@H]2CO | inconclusive: 20.5
11 | C[C@@H]1CN([C@H](C)CO)C(=O)c2cccc(NC(=O)Nc3ccc4c(c3)OCO4)c2O[C@@H]1CN(C)C(=O)Nc1ccc2c(c1)OCO2 | inconclusive: -37.5
12 | COCC#Cc1ccc2c(c1)O[C@H](CN(C)C(=O)c1ccccc1)[C@@H](C)CN([C@H](C)CO)S2(=O)=O | inconclusive: -13
13 | COc1ccc(CN(C)C(=O)COC(=O)c2c(-c3ccccc3Cl)noc2C)cc1 | inconclusive: -25.5
14 | CC(=O)Nc1ccc(-c2ccnc3c2CC(C)(C(=O)Nc2ccc4c(c2)OCO4)O3)cc1 (configuration not stated) | inconclusive: -8.74
15 | O=S(=O)(Cc1ccccc1)N1CCCCN2[C@@H](CO)[C@H](c3ccc(C#Cc4ccccc4)cc3)[C@@H]2C1 | inactive: 10.2
16 | [O-][n+]1ccccc1/C=C/c1ccccc1 | inconclusive: 4.11
17 | COc1ccc(Cc2nnc(Nc3ccc(C)cc3)o2)cc1OC | inconclusive: -5.94
18 | O=C(Nc1nc(-c2ccc3ccccc3c2)cs1)C1CCN(S(=O)(=O)c2cccs2)CC1 | inconclusive: 17.5
19 | O=C(Nc1ccc(F)c(Cl)c1)C1CC2CCC1C2 (configuration not stated) | inconclusive: -5.57
20 | O=C(Nc1ccccc1)N1CCCCN2[C@@H](CO)[C@H](c3ccc(Br)cc3)[C@@H]2C1 | inconclusive: -23.4
21 | Fc1cccc(CCN2C(=S)NC[C@@H]2CC2CCCCC2)c1 | inconclusive: -26.6
22 | Cc1cccc(Oc2ccc(NC(=O)c3ccccc3C(=O)O)cc2)c1 | inactive: -5.43
23 | O=C(Cc1ccc(Cl)cc1)c1ccc(O)cc1 | inactive: 1.11
24 | CCOc1ccc(OCC)c(NC(=O)CSc2nc3c(c(=O)n(C)c(=O)n3C)n2C(C)C)c1 | inconclusive: -18.2
25 | CC(C)(CC(=O)O)CC(=O)NCc1c(Cl)cccc1Sc1ccc(Cl)cc1 | inactive: -13.7
26 | CN(CC(=O)Nc1ccc(S(=O)(=O)N2CCCC2)cc1)CC(=O)Nc1ccc(F)c(F)c1F | inconclusive: -20.8

Row | Compound | activity change, negative = inhibition
27 | Nc1ncncc1-c1ccc(Cl)cc1 | inconclusive: -18.8
28 | CN(C)CC(=O)N[C@@H]1CC[C@@H](CCNC(=O)Nc2ccc(Cl)cc2)O[C@H]1CO | inconclusive: -3.68
29 | COc1ccc(C#Cc2ccc([C@@H]3[C@H](CO)N4CCCCN(C(=O)Nc5cccc(F)c5)C[C@@H]34)cc2)cc1 | inconclusive: 12.4
30 | O=S1(=O)N[C@H](Cc2ccccc2)COc2cc(N3CCSCC3)ccc21 | inactive: -1.56
31 | CN(C)CCCN(C(=O)CCOc1ccccc1)c1nc2c(F)cccc2s1 | inactive: 0.111
32 | CN(c1ccccc1)S(=O)(=O)c1cccc(C(=O)OCC(=O)NCc2ccco2)c1 | inconclusive: -17.7
33 | COc1ccc(-c2cc(C(=O)Nc3ccc(C(N)=O)cc3)c3ccccc3n2)cc1OC | inactive: 2.36
34 | O=C(c1ccc(Cl)cc1)N1CCN(c2cccc3[nH]ccc23)CC1 | inconclusive: -19.5
35 | O=C(COC(=O)c1ccccc1O)NCCC1=CCCCC1 | inconclusive: -1.2
36 | O=C(c1cc(S(=O)(=O)N2CCOCC2)ccc1Cl)N1CCc2ccccc2C1 | inconclusive: -4.29
37 | O=C(C[C@H]1CC[C@H]2[C@@H](COC[C@@H](O)CN2C(=O)Nc2cc(Cl)cc(Cl)c2)O1)N1CCOCC1 | inconclusive: 1.23
38 | Cc1ccc(CSCC(=O)Nc2ccccc2F)cc1 | inconclusive: -0.973
39 | COc1ccccc1-c1noc2ncnc(Nc3ccccc3C)c12 | inconclusive: -1.29
40 | COc1ccc(-n2c(COc3cccc(C)c3)n[nH]c2=S)cc1 | inconclusive: -17.2
41 | COC(=O)c1ccc2nc(-c3ccco3)c(Cc3ccc(C)cc3)n2c1 | inconclusive: 0.081
42 | Cc1cc(CNC(=O)COc2ccc(C)c(C)c2)c2ccccc2n1 | inconclusive: -31.8
43 | COC(=O)c1cc(S(=O)(=O)NCc2ccc3c(c2)OCO3)cn1C | inconclusive: 0.885
44 | CC(C)C1C(c2ccccc2)N(C)C(c2ccccc2)CC1(O)c1ccccc1 (configuration not stated) | inconclusive: -25.2
45 | C[C@@H]1CCCCO[C@@H](CN(C)C)[C@@H](C)CN([C@@H](C)CO)C(=O)c2cc(NC(=O)Nc3cccc4ccccc34)ccc2O1 | inconclusive: 10.2
46 | COCCNc1cc(-c2ccccc2)nc2cc(-c3cccc(F)c3)nn12 | inconclusive: -10.1
47 | CCOC(=O)c1cc(-c2ccc(OC)cc2)n[nH]1 | inconclusive: -10.1
48 | Cc1ccc(OCCn2c(=S)[nH]c3c(N)ncnc32)cc1 | inconclusive: -16.5
49 | NC(=O)c1ccsc1NC(=O)COC(=O)Cc1ccc(F)cc1 | inactive: 0.15
50 | Cc1ccc(C(=O)C2CCN(CC(=O)Nc3nc(C)cs3)CC2)cc1 | inconclusive: -23
51 | Cc1onc(-c2ccccc2Cl)c1C(=O)N1CCN(Cc2ccc3c(c2)OCO3)CC1 | inactive: -5.96
52 | COc1ccccc1CCNC(=O)c1cccc(NC(=O)CC2SC(N3CCCCC3)=NC2=O)c1 (configuration not stated) | inconclusive: -16.1

From no. 32 up to 35, copied from above:
Row | Compound | activity change, negative = inhibition
32 | CN(c1ccccc1)S(=O)(=O)c1cccc(C(=O)OCC(=O)NCc2ccco2)c1 | inconclusive: -17.7
33 | COc1ccc(-c2cc(C(=O)Nc3ccc(C(N)=O)cc3)c3ccccc3n2)cc1OC | inactive: 2.36
34 | O=C(c1ccc(Cl)cc1)N1CCN(c2cccc3[nH]ccc23)CC1 | inconclusive: -19.5
35 | O=C(COC(=O)c1ccccc1O)NCCC1=CCCCC1 | inconclusive: -1.2
